{"sequences": {"note": "By UniProt entry, the sequences of proteins in these tests, tags left out. Where a name states a change or a piece, a line headed by the entry shows the natural chain unless it says otherwise.", "UniProt P72777": "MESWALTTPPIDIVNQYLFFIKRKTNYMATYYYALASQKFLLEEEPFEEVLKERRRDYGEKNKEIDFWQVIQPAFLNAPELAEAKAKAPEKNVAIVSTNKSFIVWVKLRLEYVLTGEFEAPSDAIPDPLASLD"}, "source": "paper PMC5317394", "binders": {"B1": {"name": "CycI, catalytic subunit of the Mg-protoporphyrin IX monomethylester cyclase (protein, UniProt P72584 1-358)", "chain": "MVNTLEKPGFDEIRPGVKTPAKETILTPRFYTTDFDEMAKMDISPNEDELRAILEEFRVDYNRHHFVRNESFNKSWDHIDGEKRQLFVEFLERSCTAEFSGFLLYKELGRRLKNKNPLLAECFNLMSRDEARHAGFLNKAMSDFNLSLDLGFLTKSRKYTFFKPKFIFYATYLSEKIGYWRYITIYRHLEKNPNDCIYPIFEFFENWCQDENRHGDFFDAIMRAQPHTLNDWKAKLWCRFFLLSVFATMYLNDTQRADFYACLGLEARSYDKEVIEKTNETAGRVFPIILDVNNPEFYNRLETCVSNNEQLRAIDASGAPGVIKALRKLPIFASNGWQFIKLYLMKPIAVDQLAGAVR"}}, "key": {"[1]": {"biological_target": "3x FLAG-tagged Ycf54 A9G (Synechocystis sp. PCC 6803) (UniProt P72777)", "assay": "pull-down; FLAG-tagged Ycf54 (bait) purified from dodecyl-β-maltoside solubilised membrane fractions of Synechocystis strains (Δycf54 background); eluates resolved by SDS-PAGE and blotted with anti-CHL27 (CycI) and anti-FLAG"}, "[2]": {"biological_target": "3x FLAG-tagged wild-type Ycf54 (Synechocystis sp. PCC 6803) (UniProt P72777)", "assay": "pull-down; FLAG-tagged Ycf54 (bait) purified from dodecyl-β-maltoside solubilised membrane fractions of Synechocystis strains (Δycf54 background); eluates resolved by SDS-PAGE and blotted with anti-CHL27 (CycI) and anti-FLAG"}}, "note": "Results are given in words; binding and its absence hold for the method and conditions named. In cells and extracts the contact can be indirect. A result given as binding can be weak or reduced; the word gives no strength."}
{"binder": "B1", "values": [{"measurement": "binding", "setting": "[1]", "result": "binds"}, {"measurement": "binding", "setting": "[2]", "result": "binds"}]}
